Measured values taken from the supplement of paper PMC8728848.
The other results are listed elsewhere or left out.

Tests used:
Assay in all cases: glycan array binding signal (z-score within array); higher = stronger binding
Conditions in all cases: glycan notation: IUPAC condensed, linker removed
[1] = molecular target: Fuc(a1-3)[Gal(b1-4)]GlcNAc(b1-3)Gal(b1-4)[Fuc(a1-3)]GlcNAc
Procedure, shortened: (§1)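 Glycan array data were curated from 3228 arrays in the Consortium for Functional Glycomics database and kept only where the protein sequence was available. Glycan names were converted to IUPAC-condensed notation, and columns mapping to the same glycan were averaged. The binding signal is a within-array Z-score, averaged across arrays of the same protein sequence at different concentrations or buffers and across linkers. Negative Z-scores can be read as non-binding.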

[2] = molecular target: Fuc(a1-3)[Gal(b1-4)]GlcNAc(b1-3)Gal(b1-4)[Fuc(a1-3)]GlcNAc(b1-3)Gal(b1-4)[Fuc(a1-3)]GlcNAc
Procedure, shortened: as §1

[3] = molecular target: Fuc(a1-3)[Gal(b1-4)]GlcNAc(b1-3)GalNAc
Procedure, shortened: as §1

[4] = molecular target: Fuc(a1-3)[Gal(b1-4)]GlcNAc(b1-6)GalNAc
Procedure, shortened: as §1

[5] = molecular target: Fuc(a1-3)[Gal(b1-4)]GlcNAc(b1-6)[Gal(b1-3)GlcNAc(b1-3)]Gal(b1-4)Glc
Procedure, shortened: as §1

[6] = molecular target: Fuc(a1-3)[Gal(b1-4)]GlcNAc6S
Procedure, shortened: as §1

[7] = molecular target: Fuc(a1-3)[Gal3S(b1-4)]Glc
Procedure, shortened: as §1

[8] = molecular target: Fuc(a1-3)[Gal3S(b1-4)]GlcNAc
Procedure, shortened: as §1

[9] = molecular target: Fuc(a1-3)[Gal3S(b1-4)]GlcNAc6S
Procedure, shortened: as §1

[10] = molecular target: Fuc(a1-3)[GalNAc(b1-4)]GlcNAc
Procedure, shortened: as §1

[11] = molecular target: Fuc(a1-3)[GalNAc(b1-4)]GlcNAc6S
Procedure, shortened: as §1

Fuc(a1-4)GlcNAc = molecular target: Fuc(a1-4)GlcNAc
Procedure, shortened: as §1

Fuc(b1-3)GlcNAc = molecular target: Fuc(b1-3)GlcNAc
Procedure, shortened: as §1

Gal(a1-2)Gal = molecular target: Gal(a1-2)Gal
Procedure, shortened: as §1

Gal(a1-3)Gal = molecular target: Gal(a1-3)Gal
Procedure, shortened: as §1

Gal(a1-3)Gal(b1-3)GlcNAc = molecular target: Gal(a1-3)Gal(b1-3)GlcNAc
Procedure, shortened: as §1

[12] = molecular target: Gal(a1-3)Gal(b1-3)GlcNAc(b1-2)Man
Procedure, shortened: as §1

[13] = molecular target: Gal(a1-3)Gal(b1-3)GlcNAc(b1-2)Man(a1-3)[Gal(a1-3)Gal(b1-3)GlcNAc(b1-2)Man(a1-6)]Man(b1-4)GlcNAc(b1-4)GlcNAc
Procedure, shortened: as §1

[14] = molecular target: Gal(a1-3)Gal(b1-3)GlcNAc(b1-3)GalNAc
Procedure, shortened: as §1

[15] = molecular target: Gal(a1-3)Gal(b1-3)GlcNAc(b1-6)GalNAc
Procedure, shortened: as §1

[16] = molecular target: Gal(a1-3)Gal(b1-3)[Fuc(a1-4)]GlcNAc(b1-2)Man(a1-3)[Gal(a1-3)Gal(b1-3)[Fuc(a1-4)]GlcNAc(b1-2)Man(a1-6)]Man(b1-4)GlcNAc(b1-4)GlcNAc
Procedure, shortened: as §1

Gal(a1-3)Gal(b1-4)Glc = molecular target: Gal(a1-3)Gal(b1-4)Glc
Procedure, shortened: as §1

Gal(a1-3)Gal(b1-4)GlcNAc = molecular target: Gal(a1-3)Gal(b1-4)GlcNAc
Procedure, shortened: as §1

[17] = molecular target: Gal(a1-3)Gal(b1-4)GlcNAc(b1-2)Man
Procedure, shortened: as §1

[18] = molecular target: Gal(a1-3)Gal(b1-4)GlcNAc(b1-2)Man(a1-3)[Gal(a1-3)Gal(b1-4)GlcNAc(b1-2)Man(a1-6)]Man(b1-4)GlcNAc(b1-4)GlcNAc
Procedure, shortened: as §1

[19] = molecular target: Gal(a1-3)Gal(b1-4)GlcNAc(b1-3)GalNAc
Procedure, shortened: as §1

[20] = molecular target: Gal(a1-3)Gal(b1-4)GlcNAc(b1-6)GalNAc
Procedure, shortened: as §1

[21] = molecular target: Gal(a1-3)Gal(b1-4)[Fuc(a1-3)]GlcNAc
Procedure, shortened: as §1

[22] = molecular target: Gal(a1-3)Gal(b1-4)[Fuc(a1-3)]GlcNAc(b1-2)Man(a1-3)[Gal(a1-3)Gal(b1-4)[Fuc(a1-3)]GlcNAc(b1-2)Man(a1-6)]Man(b1-4)GlcNAc(b1-4)GlcNAc
Procedure, shortened: as §1

Gal(a1-3)GalNAc = molecular target: Gal(a1-3)GalNAc
Procedure, shortened: as §1

[23] = molecular target: Gal(a1-3)[Gal(a1-4)]Gal(b1-4)GlcNAc
Procedure, shortened: as §1

[24] = molecular target: Gal(a1-4)Gal(b1-3)GlcNAc(b1-2)Man(a1-3)[Gal(a1-4)Gal(b1-3)GlcNAc(b1-2)Man(a1-6)]Man(b1-4)GlcNAc(b1-4)GlcNAc
Procedure, shortened: as §1

Gal(a1-4)Gal(b1-4)Glc = molecular target: Gal(a1-4)Gal(b1-4)Glc
Procedure, shortened: as §1

Gal(a1-4)Gal(b1-4)GlcNAc = molecular target: Gal(a1-4)Gal(b1-4)GlcNAc
Procedure, shortened: as §1

[25] = molecular target: Gal(a1-4)Gal(b1-4)GlcNAc(b1-2)Man(a1-3)[Gal(a1-4)Gal(b1-4)GlcNAc(b1-2)Man(a1-6)]Man(b1-4)GlcNAc(b1-4)GlcNAc
Procedure, shortened: as §1

[26] = molecular target: Gal(a1-4)Gal(b1-4)GlcNAc(b1-3)Gal(b1-4)Glc
Procedure, shortened: as §1

Gal(a1-4)GlcNAc = molecular target: Gal(a1-4)GlcNAc
Procedure, shortened: as §1

Gal(a1-6)Glc = molecular target: Gal(a1-6)Glc
Procedure, shortened: as §1

B1: PX14343I-pdi-501-30-501 (Parabacteroides distasonis) (protein)
chain: SDQYSTETFWKTKEHASAGIMGCYNALKLWRSLHTMEFDMLTANAMPYNEANGTQAIGKGEHLSTTALIGSLWKNCYVGIGRTNTFIANVGGVDMDESEKAKMVGEAKFLRAFYYLSLVDKFGGVPLIIDAPNADEQAELPRNSKEEVVNQIVKDLEEAAAVLPDTYASSDLGRATKGAALALKARTLLYNSRWAEAAQAAKQVMESGVYQLFNDYRHFFSEDNKYNCEVIFDIEAKLPEYPTDYDQNIWRLNRPAPLKELVDTYLCVDGKTIEESPLYDPTRPYENRDPRLLKSIVCIGYPYLGKTITKEDVATTGFGVKKYTSYEDDVTIPLVERSAFNFILIRYAEVLLTYAEAQNEASGPDQSVYDAINQLRRRPDINMPEVPKGLTKDQMREVIRRERRIELTFEGLYYSDILRWKTAEKENNGMMHNYEGIEVVKRSFNPKRDYLWPIPYNQTVLNPNLEQNPNWD
With B1 the “glycan array binding signal (z-score)” value [1] was 0.233, the “glycan array binding signal (z-score)” value [2] was -0.451 and the “glycan array binding signal (z-score)” value [3] was -0.832. For the same binder, the “glycan array binding signal (z-score)” value [4] was 0.867, the “glycan array binding signal (z-score)” value [5] was -0.159 and the “glycan array binding signal (z-score)” value [6] was -0.065. For the same binder, the “glycan array binding signal (z-score)” value [7] was 0.068, the “glycan array binding signal (z-score)” value [8] was -0.287 and the “glycan array binding signal (z-score)” value [9] was -0.368. For the same binder, the “glycan array binding signal (z-score)” value [10] was -0.859, the “glycan array binding signal (z-score)” value [11] was -0.272 and the “glycan array binding signal (z-score)” value (Fuc(a1-4)GlcNAc) was -0.627. For the same binder, the “glycan array binding signal (z-score)” value (Fuc(b1-3)GlcNAc) was 0.522, the “glycan array binding signal (z-score)” value (Gal(a1-2)Gal) was -0.51 and the “glycan array binding signal (z-score)” value (Gal(a1-3)Gal) was -0.312. The “glycan array binding signal (z-score)” value (Gal(a1-3)Gal(b1-3)GlcNAc) was -0.895, the “glycan array binding signal (z-score)” value [12] was -0.295 and the “glycan array binding signal (z-score)” value [13] was 0.555. The “glycan array binding signal (z-score)” value [14] was -0.113, the “glycan array binding signal (z-score)” value [15] was -0.687 and the “glycan array binding signal (z-score)” value [16] was 0.537. The “glycan array binding signal (z-score)” value (Gal(a1-3)Gal(b1-4)Glc) was 0.05, the “glycan array binding signal (z-score)” value (Gal(a1-3)Gal(b1-4)GlcNAc) was 0.417 and the “glycan array binding signal (z-score)” value [17] was -0.638. For the same binder, the “glycan array binding signal (z-score)” value [18] was 0.111, the “glycan array binding signal (z-score)” value [19] was 0.216 and the “glycan array binding signal (z-score)” value [20] was -0.364. For the same binder, the “glycan array binding signal (z-score)” value [21] was -0.762, the “glycan array binding signal (z-score)” value [22] was 0.785 and the “glycan array binding signal (z-score)” value (Gal(a1-3)GalNAc) was -0.074. The “glycan array binding signal (z-score)” value [23] was 2.67, the “glycan array binding signal (z-score)” value [24] was -0.39 and the “glycan array binding signal (z-score)” value (Gal(a1-4)Gal(b1-4)Glc) was 0.986. For the same binder, the “glycan array binding signal (z-score)” value (Gal(a1-4)Gal(b1-4)GlcNAc) was 0.411, the “glycan array binding signal (z-score)” value [25] was 0.022 and the “glycan array binding signal (z-score)” value [26] was -0.408. For the same binder, the “glycan array binding signal (z-score)” value (Gal(a1-4)GlcNAc) was -0.858 and the “glycan array binding signal (z-score)” value (Gal(a1-6)Glc) was 0.107.
